# Laboratory results from PubChem BioAssay AID485353 (National Center for Advancing Translational Sciences (NCATS), 2010).
# Among all 330,000 compounds or so, about 610 (0.18%) were called active. Inconclusive means that the source gave no clear call. Such entries were picked first, then a sample of the others. The call rests on the fitted dose curve. Potencies of inconclusive entries are doubtful fits and often do not repeat.
# Assay: qHTS of Yeast-based Assay for SARS-CoV PLP; further: nearly all actives have a fitted effect of over 55% in size
# Settings: S. cerevisiae expressing SARS-CoV PLpro; Potency: growth rescue; series mostly up to 32.9 µM
# Potency means the concentration at half of the fitted maximal effect.
row,Compound,Potency
1,Cn1cc(CN2CCN(c3ccccc3)CC2)c2ccccc21,"inconclusive: 2.82 µM [activator, partial curve]"
2,CCCCN(CC)C(=O)Cc1ccccc1OC,"inconclusive: 2 µM [activator, full curve, poor fit]"
3,O=c1cc(CSc2ccc(Cl)cc2)nc(-c2ccccc2)[nH]1,inactive
4,CC1=Nc2ccccc2N=C(NC(=O)CN2CCN(c3ccccc3)CC2)C1c1ccccc1 (stereo not given),inactive
5,O=C(Cc1csc(NC(=O)Nc2ccc(Cl)cc2)n1)NC1CCCC1,inactive
6,Cc1ccc(-c2ccc(CCC(=O)O)n2CC(=O)O)cc1,inactive
7,O=C(COc1ccc(Cl)cc1)Nc1nc(-c2ccncc2)cs1,"inconclusive: 20 µM [activator, single point]"
8,CCOC(=O)C(NC(=O)c1ccccc1)=C(C)C,inactive
9,Cc1cc(-c2ccccc2)c2c(=O)[nH][nH]c2n1,"inconclusive: 12.6 µM [activator, partial curve]"
10,O=C(/C(=C/O)N=Nc1ccccc1)c1ccncc1,"inconclusive: 4.47 µM [activator, single point]"
11,Cc1ccc(S(=O)(=O)Nc2cc3c(cc2N2CCOCC2)n(C)c(=O)c(=O)n3C)cc1,"inconclusive: 3.98 µM [activator, single point]"
12,CC(CNC(=O)Cn1cnc2c(NCc3ccccc3)ncnc21)c1ccccc1 (stereo not given),active: 14.1 µM
13,O=C(Cc1ccccc1)Nc1ccccc1C(=O)O,inactive
14,C=CCc1cccc(/C=N/NC(=O)c2ccc3nc[nH]c3c2)c1O,"inconclusive: 17.8 µM [activator, partial curve]"
15,O=C(NNC(=O)c1ccc[nH]1)Nc1cccc(C(F)(F)F)c1,"inconclusive: 4.47 µM [activator, single point]"
16,O=C(NCC1CCCO1)c1cccc(NC(=O)c2cccs2)c1 (stereo not given),inactive
17,O=C(NCC1CCCO1)c1ccc2nc(N3CCCCC3)sc2c1 (stereo not given),"inconclusive: 0.398 µM [activator, full curve, poor fit]"
18,Cc1ccc(CN2CCc3[nH]c(=O)[nH]c(=O)c3C2)cc1,inactive
19,COc1cccc(C(=O)Nc2ccc(C(=O)NCC(C)C)cc2)c1,inactive
20,CCN(CC)S(=O)(=O)c1ccc(N2CCCCC2)c(C(=O)Nc2ccccc2N2CCOCC2)c1,"inconclusive: 3.16 µM [activator, single point]"
21,Cc1ccc(C)c(-n2c(SCC(=O)NC(C(=O)O)C(C)C)nnc2-c2cccc(Cl)c2)c1 (stereo not given),inactive
22,CCc1ccccc1NC(=O)NNC(=O)c1ccc2ccccc2c1O,"inconclusive: 10 µM [activator, single point]"
23,Cc1ccc(-c2nnn(CC(=O)N(Cc3cccs3)C(C(=O)NC(C)(C)C)c3ccc(C)o3)n2)o1 (stereo not given),"inconclusive: 20 µM [activator, single point]"
24,Cc1noc(C)c1COc1ccc(C(=O)NCC(c2c(F)cccc2Cl)N(C)C)cc1 (stereo not given),inactive
25,Cn1c(=O)c(Cc2ccccc2)c(O)c2ccccc21,active: 10 µM

# An excerpt of these results, tab-delimited:
row	Compound	Potency
22	CCc1ccccc1NC(=O)NNC(=O)c1ccc2ccccc2c1O	inconclusive: 10 µM [activator, single point]
23	Cc1ccc(-c2nnn(CC(=O)N(Cc3cccs3)C(C(=O)NC(C)(C)C)c3ccc(C)o3)n2)o1 (stereo not given)	inconclusive: 20 µM [activator, single point]
24	Cc1noc(C)c1COc1ccc(C(=O)NCC(c2c(F)cccc2Cl)N(C)C)cc1 (stereo not given)	inactive

# Further entries follow.

row,Compound,Potency
1,C/C(CC(=O)NC(C)(C)C)=N\NC(N)=S,"inconclusive: 14.1 µM [activator, single point]"
2,C/C(=N\NC(=S)NCCc1ccccc1)c1ccc(Cl)cc1Cl,"inconclusive: 1.41 µM [activator, partial curve]"
3,CN(C)CC(=O)c1c(N)n(Cc2ccccc2)c(=O)n(C)c1=O,inactive
4,Clc1ccccc1CNc1ncnc2nc[nH]c12,"inconclusive: 20 µM [activator, partial curve]"
5,O=C(N/N=C/c1cc(Cl)ccc1O)C(=O)Nc1ccccc1OC(F)(F)C(F)F,active: 2 µM
6,C=CCN1C(=NC(=O)COc2ccccc2)SC2CS(=O)(=O)CC21 (stereo not given),"inconclusive: 2.82 µM [activator, single point]"
7,Cc1c(C(=O)NCc2ccc3c(c2)OCO3)oc2ccccc12,inactive
8,CCC1CCCCN1CCCNC(=O)c1cn(CC)c2ccc(S(=O)(=O)N3CCc4ccccc4C3)cc2c1=O (stereo not given),inactive
9,CCOC(=O)CSc1nc2ccc(NC(=O)CSc3nnnn3Cc3ccccc3)cc2s1,inactive
10,O=C(NC(=S)N1CCOCC1)C12CC3CCC(CC(C3)C1)C2,"inconclusive: 20 µM [activator, single point]"
11,Cc1cc(S(=O)(=O)N2CCN=C2c2ccccc2)c(Cl)cc1Cl,inactive
12,Cc1ccc(S(=O)(=O)N2CCC3(CC2)OCCO3)s1,"inconclusive: 3.16 µM [activator, single point]"
13,CSc1ccn(CCC(=O)O)c(=O)n1,active: 10 µM
14,COc1ccc(CN2CCNC(=O)C2CC(=O)NCc2cc(C)n(C)n2)c(F)c1 (stereo not given),"inconclusive: 3.55 µM [activator, single point]"
15,O=C(c1ccc(Cl)s1)N1CCc2ccccc21,inactive
16,COc1ccc(NC(=S)NCCc2ccccc2)c(OC)c1,"inconclusive: 10 µM [activator, single point]"
17,CC(C)(C)OC(=O)NCC(=O)Oc1cc2oc(=O)cc(-c3ccccc3)c2cc1Cl,"inconclusive: 11.2 µM [activator, single point]"
18,O=C(CNC(=O)c1cccs1)OCc1ccc(Br)cc1,"inconclusive: 3.55 µM [activator, single point]"
19,COc1ccc(C(=O)NCc2nnc(SCC(=O)NCc3ccco3)o2)cc1OC,"inconclusive: 20 µM [activator, single point]"
20,CCCCCn1c(CCCNC(=O)CC)nc2ccccc21,inactive
21,COCCn1c(C)cc(C(=O)CSc2nc3ccccc3s2)c1C,inactive
22,COc1ccccc1C(=O)Nc1ccnn1C1CCN(C(=O)c2cnsn2)CC1,"inconclusive: 14.1 µM [activator, single point]"
23,Cc1ccccc1OCC(=O)NC(=S)Nc1ccc(S(=O)(=O)NC2CCCCC2)cc1,"inconclusive: 20 µM [activator, single point]"
24,CSc1ccc(NS(=O)(=O)c2ccc(-n3cnnn3)cc2)cc1,inactive
25,CC(C)(C)c1ccc(C[C@H](C(=O)O)N2C(=O)c3ccc(C(=O)O)cc3C2=O)cc1,"inconclusive: 3.55 µM [activator, partial curve]"
